# The list shows a part of the results.
# B1: ERGIC1-EDTA (Homo sapiens), Q969X5 (protein)
# chain: MKFLVNVALVFMVVYISYIYAAAHMHHHHHHDYDIPTTENLYFQGSEVVNELYVDDPDKDSGGKIDVSLNISLPNLHCELVGLDIQDEMGRHEVGHIDNSMKIPLNNGAGCRFEGQFSINKVPGNFHVSTHSATAQPQNPDMTHVIHKLSFGDTLQVQNIHGAFNALGGADRLTSNPLASHDYILKIVPTVYEDKSGKQRYSYQYTVANKEYVAYSHTGRIIPAIWFRYDLSPITVKYTE
# What was measured:
# Test in all cases: glycan array binding signal (z-score within array); higher = stronger binding
# Conditions in all cases: glycan notation: IUPAC condensed, linker removed
# [1] = target: GlcNAc(b1-3)Gal(b1-4)GlcNAc(b1-3)Gal(b1-4)GlcNAc(b1-2)Man(a1-3)[GlcNAc(b1-3)Gal(b1-4)GlcNAc(b1-3)Gal(b1-4)GlcNAc(b1-2)Man(a1-6)]Man(b1-4)GlcNAc(b1-4)GlcNAc
# Procedure, shortened: (§1)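 The binding signal is a Z-score computed within each array. Data were drawn from 3228 arrays in the Consortium for Functional Glycomics database, restricted to those with a known protein sequence. Scores were averaged over arrays of the same protein sequence at different concentrations or buffers, and over linkers, and negative values can be taken as non-binding.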
# [2] = target: GlcNAc(b1-3)Gal(b1-4)GlcNAc(b1-3)Gal(b1-4)GlcNAc(b1-2)Man(a1-3)[GlcNAc(b1-3)Gal(b1-4)GlcNAc(b1-3)Gal(b1-4)GlcNAc(b1-2)Man(a1-6)]Man(b1-4)GlcNAc(b1-4)[Fuc(a1-6)]GlcNAc
# Procedure, shortened: as §1
# [3] = target: GlcNAc(b1-3)Gal(b1-4)GlcNAc(b1-3)Gal(b1-4)GlcNAc(b1-2)[GlcNAc(b1-3)Gal(b1-4)GlcNAc(b1-3)Gal(b1-4)GlcNAc(b1-6)]Man(a1-6)[GlcNAc(b1-3)Gal(b1-4)GlcNAc(b1-3)Gal(b1-4)GlcNAc(b1-2)Man(a1-3)]Man(b1-4)GlcNAc(b1-4)[Fuc(a1-6)]GlcNAc
# Procedure, shortened: as §1
# [4] = target: GlcNAc(b1-3)Gal(b1-4)GlcNAc(b1-3)Gal(b1-4)GlcNAc(b1-3)Gal(b1-4)GlcNAc(b1-2)Man(a1-3)[GlcNAc(b1-3)Gal(b1-4)GlcNAc(b1-3)Gal(b1-4)GlcNAc(b1-3)Gal(b1-4)GlcNAc(b1-2)Man(a1-6)]Man(b1-4)GlcNAc(b1-4)GlcNAc
# Procedure, shortened: as §1
# [5] = target: GlcNAc(b1-3)Gal(b1-4)GlcNAc(b1-3)Gal(b1-4)GlcNAc(b1-3)Gal(b1-4)GlcNAc(b1-2)Man(a1-3)[GlcNAc(b1-3)Gal(b1-4)GlcNAc(b1-3)Gal(b1-4)GlcNAc(b1-3)Gal(b1-4)GlcNAc(b1-2)Man(a1-6)]Man(b1-4)GlcNAc(b1-4)[Fuc(a1-6)]GlcNAc
# Procedure, shortened: as §1
# [6] = target: GlcNAc(b1-3)Gal(b1-4)GlcNAc(b1-3)Gal(b1-4)GlcNAc(b1-3)Gal(b1-4)GlcNAc(b1-2)[GlcNAc(b1-3)Gal(b1-4)GlcNAc(b1-3)Gal(b1-4)GlcNAc(b1-3)Gal(b1-4)GlcNAc(b1-6)]Man(a1-6)[GlcNAc(b1-3)Gal(b1-4)GlcNAc(b1-3)Gal(b1-4)GlcNAc(b1-3)Gal(b1-4)GlcNAc(b1-2)Man(a1-3)]Man(b1-4)GlcNAc(b1-4)[Fuc(a1-6)]GlcNAc
# Procedure, shortened: as §1
# [7] = target: GlcNAc(b1-3)Gal(b1-4)GlcNAc(b1-3)Gal(b1-4)GlcNAc(b1-3)Gal(b1-4)GlcNAc(b1-3)Gal(b1-4)GlcNAc(b1-2)Man(a1-3)[GlcNAc(b1-3)Gal(b1-4)GlcNAc(b1-3)Gal(b1-4)GlcNAc(b1-3)Gal(b1-4)GlcNAc(b1-3)Gal(b1-4)GlcNAc(b1-2)Man(a1-6)]Man(b1-4)GlcNAc(b1-4)GlcNAc
# Procedure, shortened: as §1
# [8] = target: GlcNAc(b1-3)Gal(b1-4)GlcNAc(b1-3)Gal(b1-4)GlcNAc(b1-3)Gal(b1-4)GlcNAc(b1-3)Gal(b1-4)GlcNAc(b1-2)Man(a1-3)[GlcNAc(b1-3)Gal(b1-4)GlcNAc(b1-3)Gal(b1-4)GlcNAc(b1-3)Gal(b1-4)GlcNAc(b1-3)Gal(b1-4)GlcNAc(b1-2)Man(a1-6)]Man(b1-4)GlcNAc(b1-4)[Fuc(a1-6)]GlcNAc
# Procedure, shortened: as §1
# [9] = target: GlcNAc(b1-3)Gal(b1-4)GlcNAc(b1-3)Gal(b1-4)GlcNAc(b1-3)Gal(b1-4)GlcNAc(b1-3)Gal(b1-4)GlcNAc(b1-2)[GlcNAc(b1-3)Gal(b1-4)GlcNAc(b1-3)Gal(b1-4)GlcNAc(b1-3)Gal(b1-4)GlcNAc(b1-3)Gal(b1-4)GlcNAc(b1-6)]Man(a1-6)[GlcNAc(b1-3)Gal(b1-4)GlcNAc(b1-3)Gal(b1-4)GlcNAc(b1-3)Gal(b1-4)GlcNAc(b1-3)Gal(b1-4)GlcNAc(b1-2)Man(a1-3)]Man(b1-4)GlcNAc(b1-4)[Fuc(a1-6)]GlcNAc
# Procedure, shortened: as §1
# [10] = target: GlcNAc(b1-3)Gal(b1-4)GlcNAc(b1-3)Gal(b1-4)GlcNAc(b1-3)GalNAc
# Procedure, shortened: as §1
# [11] = target: GlcNAc(b1-3)Gal(b1-4)GlcNAc(b1-3)GalNAc
# Procedure, shortened: as §1
# [12] = target: GlcNAc(b1-3)Gal(b1-4)GlcNAc(b1-3)[GlcNAc(b1-3)Gal(b1-4)GlcNAc(b1-3)]GalNAc
# Procedure, shortened: as §1
# [13] = target: GlcNAc(b1-3)Gal(b1-4)GlcNAc(b1-6)[Gal(b1-3)]GalNAc
# Procedure, shortened: as §1
# [14] = target: GlcNAc(b1-3)Gal(b1-4)GlcNAc(b1-6)[GlcNAc(b1-3)Gal(b1-3)]GalNAc
# Procedure, shortened: as §1
# [15] = target: GlcNAc(b1-3)Gal(b1-4)GlcNAc(b1-6)[GlcNAc(b1-3)]Gal(b1-4)GlcNAc
# Procedure, shortened: as §1
# GlcNAc(b1-3)GalNAc = target: GlcNAc(b1-3)GalNAc
# Procedure, shortened: as §1
# GlcNAc(b1-3)Man = target: GlcNAc(b1-3)Man
# Procedure, shortened: as §1
# [16] = target: GlcNAc(b1-3)[GlcNAc(b1-4)][GlcNAc(b1-6)]GlcNAc
# Procedure, shortened: as §1
# [17] = target: GlcNAc(b1-3)[GlcNAc(b1-6)]Gal(b1-4)GlcNAc
# Procedure, shortened: as §1
# [18] = target: GlcNAc(b1-3)[GlcNAc(b1-6)]GalNAc
# Procedure, shortened: as §1
# [19] = target: GlcNAc(b1-4)Gal(b1-4)GlcNAc
# Procedure, shortened: as §1
# GlcNAc(b1-4)GlcNAc = target: GlcNAc(b1-4)GlcNAc
# Procedure, shortened: as §1
# [20] = target: GlcNAc(b1-4)GlcNAc(b1-4)GlcNAc
# Procedure, shortened: as §1
# [21] = target: GlcNAc(b1-4)GlcNAc(b1-4)GlcNAc(b1-4)GlcNAc(b1-4)GlcNAc
# Procedure, shortened: as §1
# [22] = target: GlcNAc(b1-4)GlcNAc(b1-4)GlcNAc(b1-4)GlcNAc(b1-4)GlcNAc(b1-4)GlcNAc
# Procedure, shortened: as §1
# [23] = target: GlcNAc(b1-4)[GlcNAc(b1-6)]GalNAc
# Procedure, shortened: as §1
# [24] = target: GlcNAc(b1-6)Gal(b1-4)GlcNAc
# Procedure, shortened: as §1
# GlcNAc(b1-6)GalNAc = target: GlcNAc(b1-6)GalNAc
# Procedure, shortened: as §1
# [25] = target: GlcNAc6S(b1-3)Gal(b1-4)GlcNAc
# Procedure, shortened: as §1
# Kdn(a2-3)Gal(b1-3)GalNAc = target: Kdn(a2-3)Gal(b1-3)GalNAc
# Procedure, shortened: as §1
# Kdn(a2-3)Gal(b1-3)GlcNAc = target: Kdn(a2-3)Gal(b1-3)GlcNAc
# Procedure, shortened: as §1
# Kdn(a2-3)Gal(b1-4)Glc = target: Kdn(a2-3)Gal(b1-4)Glc
# Procedure, shortened: as §1
# Kdn(a2-3)Gal(b1-4)GlcNAc = target: Kdn(a2-3)Gal(b1-4)GlcNAc
# Procedure, shortened: as §1
# [26] = target: Kdn(a2-3)Gal(b1-4)[Fuc(a1-3)]GlcNAc
# Procedure, shortened: as §1
# Kdn(a2-6)Gal(b1-4)GlcNAc = target: Kdn(a2-6)Gal(b1-4)GlcNAc
# Procedure, shortened: as §1
# [27] = target: Man(a1-2)Man(a1-2)Man(a1-3)Man
# Procedure, shortened: as §1
# [28] = target: Man(a1-2)Man(a1-2)Man(a1-6)[Man(a1-3)]Man
# Procedure, shortened: as §1
# Man(a1-2)Man(a1-3)Man = target: Man(a1-2)Man(a1-3)Man
# Procedure, shortened: as §1
binder,measurement,setting,value
B1,glycan array binding signal (z-score),[1],1.57
same,glycan array binding signal (z-score),[2],0.799
same,glycan array binding signal (z-score),[3],1.08
same,glycan array binding signal (z-score),[4],-0.022
same,glycan array binding signal (z-score),[5],2.52
same,glycan array binding signal (z-score),[6],1.3
same,glycan array binding signal (z-score),[7],0.044
same,glycan array binding signal (z-score),[8],-0.155
same,glycan array binding signal (z-score),[9],1.12
same,glycan array binding signal (z-score),[10],0.085
same,glycan array binding signal (z-score),[11],0.446
same,glycan array binding signal (z-score),[12],-0.179
same,glycan array binding signal (z-score),[13],0.078
same,glycan array binding signal (z-score),[14],0.825
same,glycan array binding signal (z-score),[15],-0.003
same,glycan array binding signal (z-score),GlcNAc(b1-3)GalNAc,-0.014
same,glycan array binding signal (z-score),GlcNAc(b1-3)Man,-0.479
same,glycan array binding signal (z-score),[16],-1.08
same,glycan array binding signal (z-score),[17],0.206
same,glycan array binding signal (z-score),[18],-0.049
same,glycan array binding signal (z-score),[19],0.824
same,glycan array binding signal (z-score),GlcNAc(b1-4)GlcNAc,0.338
same,glycan array binding signal (z-score),[20],-0.483
same,glycan array binding signal (z-score),[21],-0.937
same,glycan array binding signal (z-score),[22],-1.06
same,glycan array binding signal (z-score),[23],-0.971
same,glycan array binding signal (z-score),[24],-0.239
same,glycan array binding signal (z-score),GlcNAc(b1-6)GalNAc,-0.559
same,glycan array binding signal (z-score),[25],0.216
same,glycan array binding signal (z-score),Kdn(a2-3)Gal(b1-3)GalNAc,1.61
same,glycan array binding signal (z-score),Kdn(a2-3)Gal(b1-3)GlcNAc,-0.154
same,glycan array binding signal (z-score),Kdn(a2-3)Gal(b1-4)Glc,0.11
same,glycan array binding signal (z-score),Kdn(a2-3)Gal(b1-4)GlcNAc,-0.433
same,glycan array binding signal (z-score),[26],0.586
same,glycan array binding signal (z-score),Kdn(a2-6)Gal(b1-4)GlcNAc,1.73
same,glycan array binding signal (z-score),[27],-0.557
same,glycan array binding signal (z-score),[28],-0.459
same,glycan array binding signal (z-score),Man(a1-2)Man(a1-3)Man,-0.345

# Some of the entries so far, with tabs:
binder	measurement	setting	value
B1	glycan array binding signal (z-score)	[25]	0.216
same	glycan array binding signal (z-score)	Kdn(a2-3)Gal(b1-3)GalNAc	1.61

# Source: the supplement of paper PMC8728848
